PubChem BioAssay AID1224830 | NIAID | 2016
Here is an unselected part of about 18,000 reagents. About 2,900 of all reagents (16%) count as active. 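Calls are made per well; low scores hint the gene aids the LPS response, high scores that it dampens it.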 Repeated entries: four replicate wells of each siRNA pool. Reagent sequences are not shown.

Purpose: 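Host factors that control LPS-induced TNF expression in human macrophages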 (primary screen)
Cell system: human THP-1 monocytic leukaemia cells, TNF dual-luciferase reporter clone, PMA-differentiated to macrophage-like cells
Reagents: siRNA pool against human genes, 50 nM
Duration: LPS for 4 h, given about 3 days after siRNA transfection
Challenge: bacterial LPS (TLR4 ligand), 10 ng/ml
Read-out: 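TNF firefly reporter luminescence divided by renilla, normalised to the plate median, then turned into a robust z-score for each replicate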
Scale: TNF reporter robust z-score: higher = stronger TNF reporter response to LPS
Active means: 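Each well counts as active if its z-score is over 2.8 or under -1.5; controls are left without a call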

For SPTB the deposit lists TNF reporter robust z-score 0.64; inactive.
SPTB scored TNF reporter robust z-score 0.02; inactive.
Against SPTB the deposit lists TNF reporter robust z-score -0.35; inactive.
SPTB showed TNF reporter robust z-score 4.16; active.
Silencing of BZW1 gave: TNF reporter robust z-score -0.93; inactive.
For BZW1, the entry reads TNF reporter robust z-score -1.02; inactive.
After knock-down of BZW1 the results were TNF reporter robust z-score -0.25; inactive.
After knock-down of BZW1 the results were TNF reporter robust z-score 1.32; inactive.
Against MCC the deposit lists TNF reporter robust z-score -0.54; inactive.
With knock-down of MCC the results were TNF reporter robust z-score 0.46; inactive.
MCC scored TNF reporter robust z-score -0.5; inactive.
Against MCC, the entry reads TNF reporter robust z-score 0.36; inactive.
RIT1 scored TNF reporter robust z-score 0.01; inactive.
RIT1 showed TNF reporter robust z-score 1.55; inactive.
Depletion of RIT1 came out at: TNF reporter robust z-score 0.57; inactive.
Against RIT1 the deposit lists TNF reporter robust z-score 0.89; inactive.
Depletion of MRPS28 came out at: TNF reporter robust z-score -0.05; inactive.
Against MRPS28, the entry reads TNF reporter robust z-score -0.46; inactive.
Depletion of MRPS28 resulted in: TNF reporter robust z-score 0.08; inactive.
Silencing of MRPS28 gave: TNF reporter robust z-score -0.5; inactive.
CFAP58 gave TNF reporter robust z-score -0.88; inactive.
Against CFAP58, the entry reads TNF reporter robust z-score -0.73; inactive.
CFAP58 scored TNF reporter robust z-score 0.21; inactive.
Silencing of CFAP58 gave: TNF reporter robust z-score -0.62; inactive.
Knock-down of FCER1A resulted in: TNF reporter robust z-score 1.17; inactive.
After knock-down of FCER1A the results were TNF reporter robust z-score 2.58; inactive.
Knock-down of FCER1A gave: TNF reporter robust z-score 1.5; inactive.
For FCER1A, the entry reads TNF reporter robust z-score 2.78; inactive.
With knock-down of CEP170 the results were TNF reporter robust z-score -1.26; inactive.
Against CEP170, the entry reads TNF reporter robust z-score -0.47; inactive.
With knock-down of CEP170, the screen gave TNF reporter robust z-score -1.43; inactive.
For CEP170, the values are TNF reporter robust z-score -0.94; inactive.
STAR showed TNF reporter robust z-score -0.02; inactive.
Knock-down of STAR came out at: TNF reporter robust z-score 1.35; inactive.
After knock-down of STAR the results were TNF reporter robust z-score 1.11; inactive.
Against STAR, the entry reads TNF reporter robust z-score 1.73; inactive.
CAMSAP3 scored inactive.
Depletion of CAMSAP3 resulted in: TNF reporter robust z-score -0.15; inactive.
Against CAMSAP3, the values are TNF reporter robust z-score -0.39; inactive.
Knock-down of CAMSAP3 came out at: TNF reporter robust z-score -0.57; inactive.
Against CAMSAP3, the entry reads TNF reporter robust z-score 0.04; inactive.
For FABP3, the entry reads TNF reporter robust z-score -0.83; inactive.
Against FABP3 the deposit lists TNF reporter robust z-score -0.58; inactive.
FABP3 scored TNF reporter robust z-score -0.22; inactive.
FABP3 gave TNF reporter robust z-score -0.28; inactive.
For HS3ST4, the values are TNF reporter robust z-score 0.52; inactive.
HS3ST4 scored TNF reporter robust z-score -1.36; inactive.
With knock-down of HS3ST4 the results were TNF reporter robust z-score -0.41; inactive.
Silencing of HS3ST4 came out at: TNF reporter robust z-score -1.08; inactive.
